This test in a line: IkB Signaling. To be noted: ABC-DLBCL IkBa-CBG/CBR dual luciferase ratio (green luciferase fused to IkBa over red control in OCI-Ly3 lymphoma cells), 4 h. The essentials: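 Curves were fitted separately to fusion (green), unfused (red) and ratio luminescence, then classed by r2, magnitude and activity. Cells: OCI-Ly3, 4 h compound plus doxycycline at 37C; 10 uM MG-132 defined full response.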
Where [1] appears, read: measured here: control luc red channel unless noted.
Where [2] appears, read: measured here: IkB-luc green channel.
Setting [3] is: measured here: control luc red channel.

The other results are listed elsewhere or left out. Shown are side measurements of this screen, not its main read-out; they come without a call. The list favours compounds with an active or inconclusive main result. The note in brackets gives the kind of curve behind each potency; many fits are weak.

Take `CCCCN(CC)CCCNC(=O)c1cc2c(=O)oc3ccc(C)cc3c2s1`: the AC50 under setting [1] is 39.8 µM [falling, single point].
`Cc1nnc(NC(=O)CCC(=O)N2CCC(C)CC2)s1`: the half-maximal activity concentration (AC50) under setting [2] is 20 µM [rising, partial curve] and the AC50 under setting [3] was 10 µM [falling, partial curve, poor fit].
Regarding `O=C(COc1ccc(Cl)cc1)NCC(c1cccs1)S(=O)(=O)c1ccc(F)cc1` (centres undefined), the AC50 is, setting by setting: under setting [2], 3.98 µM [rising, single point]; under setting [3], 10 µM [falling, single point].
Turning to `N#Cc1c(N)nc(SC2CCCCC2=O)c(C#N)c1-c1ccco1` (centres undefined), the AC50 under setting [1] was 31.6 µM [falling, partial curve].
With `N=C(N=C(N)N)N1CCOCC1`, the AC50 under setting [1] is 6.31 µM [falling, single point].
In the case of `Cc1nnc(NCc2ccccc2)c2c1nnn2Cc1ccc(F)cc1`, the AC50 under setting [1] is 0.0631 µM [rising, partial curve].
`CCc1cccc(NC(=O)Cn2nc(-c3cc(C)ccc3C)ccc2=O)c1`: the half-maximal activity concentration (AC50) under setting [1] was 31.6 µM [falling, single point].
Regarding `Cc1ccc(CN2C(=O)C3(c4ccccc42)N(c2cccc(C(F)(F)F)c2)C(=O)CS3(=O)=O)cc1` (centres undefined), under setting [1], the AC50 is 7.94 µM [falling, partial curve].
For `O=c1cc(CSc2n[nH]c(-c3ccccc3)n2)[nH]c2ccccc12`, the half-maximal activity concentration (AC50) under setting [1] was 25.1 µM [falling, single point].
Turning to `COc1ccccc1NC(=O)CSc1oc(-c2cccs2)nc1S(=O)(=O)c1ccccc1`, under setting [1], the AC50 was 15.8 µM [falling, partial curve].
The same measure, in the same setting: under `Cc1nc2sc(C(c3ccco3)N3CCN(c4ccccc4)CC3)c(O)n2n1` (centres undefined) stands 3.16 µM [falling, full curve]; under `O=C(CN1C(=O)COc2ccc(S(=O)(=O)N3CCOCC3)cc21)N1CCN(c2ccc(F)cc2)CC1`, 39.8 µM [falling, single point].
As to `Cc1ccccc1OCC(=O)Nc1ccc(N2CCN(C(=O)C(C)C)CC2)c(Cl)c1`, the AC50 runs as follows: under setting [2], 20 µM [falling, partial curve]; under setting [3], 20 µM [falling, partial curve].
For `CCSC1(SCC)N=C(N)C2(C#N)C(c3ccc(OC)c(OC)c3OC)C12C#N` (centres undefined), the AC50 under setting [1] is 10 µM [falling, partial curve].
Still for that read-out and setting: the result for `CC(Sc1nc(=O)cc(N)n1CCc1ccccc1)C(=O)Nc1ccccc1C#N` (centres undefined) reads 20 µM [falling, partial curve].
As to `O=C(NC1CCCCC1)c1ccc2c(c1)N(Cc1ccc(Cl)cc1)C(=O)c1ccccc1S2(=O)=O`, the AC50 under setting [1] is 3.16 µM [falling, single point].
On the same count and under the same terms, the result for `CCc1nn(CC(=O)N2CCN(Cc3ccc4c(c3)OCO4)CC2)c(=O)c2cc3occc3n12` reads 15.8 µM [falling, partial curve].
On the same count and under the same terms, under `CCOc1ccc(C(=O)Nc2cccc(OCc3cc(=O)n4cc(C)sc4n3)c2)cc1` stands 0.398 µM [falling, full curve].
As to `CCCCOC(=O)c1cccc(NC(=O)c2cc3ccccc3o2)c1`, under setting [1], the AC50 was 10 µM [falling, partial curve].
As to `O=C(NCCc1ccccc1)c1ccc(CSc2nc3ccncc3n2Cc2ccc(F)cc2)cc1`, the AC50 under setting [1] was 12.6 µM [falling, partial curve].
For the compound `Cc1ccc(C)c(Cn2nc(-c3cc(C)ccc3C)ccc2=O)c1`, the AC50 under setting [1] is 25.1 µM [falling, single point].
With `CCOC(=O)c1c(S(=O)(=O)N2CCCC(C(=O)N3CCN(c4ccccc4)CC3)C2)c(C)n(C)c1C` (centres undefined), under setting [1], the AC50 is 6.31 µM [rising, single point].
Consider `O=[N+]([O-])c1ccc(C(c2sc3nc(-c4ccco4)nn3c2O)N2CCN(c3cccc(Cl)c3)CC2)cc1` (centres undefined), for which the AC50 under setting [1] was 39.8 µM [falling, single point].
Consider `Cc1cc(C(=O)COC(=O)C2=COCCO2)c(C)n1-c1ccc2c(c1)OCO2`, for which the AC50 under setting [1] is 31.6 µM [falling, single point].
The same measure, in the same setting: under `CCOC(=O)C1CCN(C(=O)CN2c3ccc(CC)cc3-c3ccccc3S2(=O)=O)CC1` stands 25.1 µM [falling, single point]; under `CCOC(=O)C1CCN(C(=O)C2CCN(S(=O)(=O)c3cc(Cl)ccc3Cl)CC2)CC1`, 12.6 µM [falling, partial curve].
Consider `CCS(=O)(=O)c1ncc(N(Cc2ccc(F)cc2)Cc2ccco2)c(C(=O)Nc2cc(C)ccc2C)n1`, for which the AC50 under setting [1] is 10 µM [falling, partial curve, poor fit].
For the compound `CCCn1c(NCc2ccc(N(CC)CC)cc2)nc2ccccc21`, under setting [1], the AC50 is 31.6 µM [falling, single point].
In the case of `OC[C@@H]1O[C@@H](n2cnc3c(NCCc4ccccc4)ncnc32)[C@@H](O)[C@H]1O`, the concentration at half-maximal activity (AC50) was 2.51 µM [rising, full curve] under setting [2] and 0.316 µM [rising, full curve] under setting [3].
Turning to `CC(=O)OCC(=O)[C@@]1(O)CC[C@@H]2[C@H]3CCC4=CC(=O)C=C[C@]4(C)[C@]3(F)[C@@H](O)C[C@@]21C`, the half-maximal activity concentration (AC50) under setting [1] was 3.98 nM [rising, full curve] [measured here: IkB-luc green channel].
In the case of `CC(=O)N1c2c(cc(Br)cc2S(=O)(=O)N2CCN(c3cccc(Cl)c3)CC2)CC1C` (centres undefined), under setting [1], the half-maximal activity concentration (AC50) was 7.94 µM [falling, partial curve].
Consider `COc1cccc(N2CCN(C(=O)c3cnn(-c4ccc(C)cc4C)c3C3CCN(C(=O)OC(C)(C)C)CC3)CC2)c1`, for which, under setting [1], the AC50 was 20 µM [falling, partial curve].
With `Cc1ccc(C)c(N2CCN(C3=C(c4ccccc4)C(=O)c4ccccc43)CC2)c1`, the AC50 under setting [1] is 39.8 µM [falling, partial curve, poor fit].
`CCN(Cc1ccccc1)C(=O)c1cc2c(s1)-c1c(C)cccc1OC2`: the AC50 under setting [1] is 39.8 µM [falling, single point].
Still for that read-out and setting: the result for `COc1ccc(/C=N/n2cc(-c3ccccc3)nc2N)cc1` reads 10 µM [falling, partial curve]; that for `CCN1CCN(c2c(S(=O)(=O)c3ccc(C)c(C)c3)cnc3ccc(F)cc23)CC1`, 25.1 µM [falling, single point].
For the compound `Cc1nn(CC(=O)Nc2ccccc2F)c(=O)c2c(C)n(-c3ccc(Cl)cc3)nc12`, the AC50 under setting [1] is 39.8 µM [falling, partial curve, poor fit].
Still for that read-out and setting: the result for `COc1ccc(NC(=O)CSc2cc(-c3ccccc3)nc(C)n2)cc1` reads 39.8 µM [falling, single point]; that for `COc1cccc(-n2nnnc2SCC(=O)Nc2cccc(C)n2)c1`, 7.94 µM [falling, partial curve]; that for `COc1ccccc1N1CCN(C(c2ccc(Cl)cc2)c2nnnn2C(C)(C)C)CC1` (centres undefined), 39.8 µM [falling, single point].
With `COc1ccc(C2C(C(=O)Nc3ccc(F)cc3)=C(C)Nc3nc(CCCO)nn32)cc1` (centres undefined), the half-maximal activity concentration (AC50) under setting [1] is 15.8 µM [falling, partial curve].
On to `O=C(Nc1c2c(nn1-c1ccc(Cl)cc1)CS(=O)(=O)C2)c1cccc(F)c1`, for which the AC50 under setting [1] is 39.8 µM [falling, single point].
In the case of `COC(=O)c1ccc(C2c3c(-c4ccccc4O)n[nH]c3C(=O)N2Cc2ccncc2)cc1` (centres undefined), the AC50 under setting [1] was 20 µM [falling, partial curve].
`CC1CN(S(=O)(=O)c2ccc(NC(=O)c3cc(-c4ccccc4O)n[nH]3)cc2)CC(C)O1` (centres undefined): the AC50 under setting [1] is 3.16 µM [falling, full curve].
In the case of `CC(C)c1nn2c(=O)cc(COC(=O)c3ccccc3NC(=O)COc3ccccc3)nc2s1`, the AC50 under setting [1] was 20 µM [falling, partial curve].
Take `CCOc1ccccc1NC(=O)c1c(NCc2cccs2)sc2c1CCC(C)C2` (centres undefined): under setting [1], the concentration at half-maximal activity (AC50) was 0.316 µM [rising, partial curve].
Take `Cc1cccc(OCc2ccc(-c3nc(C#N)c(NCc4cccnc4)o3)o2)c1`: the AC50 under setting [1] was 31.6 µM [falling, single point].
On to `COc1ccc(-c2cc(C)no2)cc1S(=O)(=O)NCc1cccs1`, for which the AC50 under setting [1] is 20 µM [rising, single point].
Regarding `CCOC(=O)c1c(S(=O)(=O)N2CCCC(C(=O)Nc3ccccn3)C2)c(C)n(C)c1C` (centres undefined), under setting [1], the AC50 was 39.8 µM [falling, single point].
Take `COc1ccc(CN2CCc3c(c(=O)n4ncc(C(=O)N5CCN(c6ccc(F)cc6)CC5)c4n3C)C2)cc1`: the AC50 under setting [1] was 10 µM [falling, partial curve].
Regarding `CCCOc1cccc(C2c3c(oc4ccccc4c3=O)C(=O)N2c2nncs2)c1` (centres undefined), the AC50 under setting [1] was 20 µM [falling, single point].
With `COc1cccc(C(=O)c2cn(CC(=O)NCc3ccccc3Cl)c3nc(C)ccc3c2=O)c1`, under setting [1], the AC50 was 39.8 µM [rising, single point] [measured here: IkB-luc green channel].
Turning to `O=C(Nc1cccc(O)c1)c1noc2c1CCc1ccccc1-2`, the AC50 is 31.6 µM [rising, single point] under setting [2] and 10 µM [falling, partial curve, poor fit] under setting [3].
As to `Cc1ccc(C)c(Cn2c(CCCNC(=O)C3CCCCC3)nc3ccccc32)c1`, under setting [1], the AC50 is 15.8 µM [falling, partial curve].
The same measure, in the same setting: the result for `Cc1c(Cl)cccc1NC(=O)Cn1cc(C(=O)c2cccs2)c2ccccc21` reads 3.16 µM [falling, full curve]; that for `CCOC(=O)c1[nH]c(C)c(C(=O)NC(CC)Cc2ccccc2)c1C` (centres undefined), 25.1 µM [falling, single point]; that for `Cc1ccc(-c2nnn3c2nc(NCC(C)c2ccccc2)c2ccccc23)cc1` (centres undefined), 39.8 µM [falling, single point].
As to `Cc1nnc(NC(=O)c2nc(SCc3ccccc3F)ncc2Cl)s1`, under setting [1], the AC50 is 20 µM [falling, partial curve].
Take `Clc1ccc(OCc2nnc(SCCN3CCCCC3)n2Cc2ccco2)cc1`: the half-maximal activity concentration (AC50) under setting [1] was 5.01 µM [falling, partial curve].

The values above are taken from PubChem BioAssay AID445 (National Center for Advancing Translational Sciences (NCATS), 2006).
